Source: PubChem BioAssay AID652248 (Drosophila RNAi Screening Center, 2013)
The whole screen tested 863 reagents; shown is an unselected part. Over the whole deposit, 32 (3.7%) were called active. 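Calls also used reproducibility and a similarity ranking whose scores are not deposited; many active genes show only modest elongated scores.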 Names joined by + are all predicted targets of the reagent. Not all columns of the deposit are shown. Not stated in the record: the amount of reagent, the time to read-out.

- Aim: 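Genes that govern switching among distinct shape types in fly blood cells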 (primary screen)
- Cells: cultured Drosophila hemocytes
- Reagents: long dsRNA against Drosophila genes
- Detection: 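Automated microscopy of stained actin, tubulin and nuclei; single-cell shape measures assigned to five reference shape types, giving a score per dsRNA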
- Direction: elongated score: higher = more elongated bipolar cells
- Call rule: 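Hits show a significant increase of elongated cells; higher rank given where elongated cells rose as other shape types fell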

| Gene | DRSC id | elongated score, rep 1 | elongated score, rep 2 | Outcome |
| --- | --- | --- | --- | --- |
| pll | DRSC17026 | 2.39 | – | active |
| pll | DRSC28551 | 4.4 | – | active |
| Drl-2 | DRSC05393 | -0.35 | – | inactive |
| Drl-2 | DRSC06155 | -0.53 | – | inactive |
| Drl-2 | DRSC06858 | 2.07 | – | inactive |
| bsk | DRSC03499 | -0.14 | – | inactive |
| Strn-Mlck | DRSC05032 | -0.1 | – | inactive |
| Strn-Mlck | DRSC05598 | -0.53 | 0.32 | inactive |
| Strn-Mlck | DRSC07471 | -0.12 | – | inactive |
| CanB2 | DRSC07355 | -0.21 | – | inactive |
| CanB2 | DRSC27440 | 2.32 | – | inactive |
| Shark | DRSC07680 | -0.44 | – | inactive |
| Shark | DRSC28527 | 0.35 | – | inactive |
| Argk2 | DRSC10483 | 0.3 | – | inactive |
| Argk2 | DRSC23349 | 0.96 | – | inactive |
| Argk2 | DRSC28762 | -0.33 | – | inactive |
| cdi | DRSC16922 | -0.24 | – | inactive |
| cdi | DRSC28376 | -0.33 | – | inactive |
| Taf1 | DRSC12607 | -0.28 | – | inactive |
| Taf1 | DRSC29806 | 0.81 | – | inactive |
| Ak2 | DRSC04043 | -0.53 | – | inactive |
| EDTP | DRSC07409 | 3.42 | – | inactive |
| CG10417 | DRSC04846 | -0.16 | – | inactive |
| CG10417 | DRSC27173 | 0.82 | – | inactive |
| metro | DRSC06341 | -0.39 | – | inactive |
| metro | DRSC06725 | 2.51 | – | inactive |
| metro | DRSC27336 | -0.02 | – | inactive |
| Alg-2 | DRSC07799 | -0.53 | – | inactive |
| fab1 + CG33981 | DRSC07412 | -0.39 | – | inactive |
| fab1 + CG33981 | DRSC28045 | -0.53 | – | inactive |
| RIOK1 | DRSC09853 | 0.65 | – | inactive |
| Dgkepsilon | DRSC07399 | -0.53 | – | inactive |
| fray | DRSC16950 | -0.03 | – | inactive |
| acj6 | DRSC20304 | 1.74 | – | inactive |
| acj6 | DRSC29003 | 1.07 | – | inactive |
| Ptpa | DRSC00776 | -0.16 | – | inactive |
| Ptpa | DRSC28747 | 1.9 | – | inactive |
| CkIalpha | DRSC20231 | -0.53 | – | inactive |
| CkIalpha | DRSC22609 | -0.53 | – | inactive |
| CkIalpha | DRSC23308 | -0.53 | – | inactive |
| CkIalpha | DRSC25564 | 1.12 | – | inactive |
| laza | DRSC11661 | 0.36 | – | inactive |
| laza | DRSC23330 | -0.22 | – | inactive |
| laza | DRSC29129 | 4.36 | – | inactive |
| bma | DRSC10164 | 0.94 | – | inactive |
| bma | DRSC28408 | 0.31 | – | inactive |

An excerpt from above, showing only “elongated score, rep 1”:
Strn-Mlck [DRSC05598] = -0.53
Strn-Mlck [DRSC07471] = -0.12
CanB2 [DRSC07355] = -0.21
CanB2 [DRSC27440] = 2.32
Shark [DRSC07680] = -0.44
Shark [DRSC28527] = 0.35
Argk2 [DRSC10483] = 0.3
